Assay results taken from publication PMC4230938, “A High-Yield Co-Expression System for the Purification of an Intact Drs2p-Cdc50p Lipid Flippase Complex, Critically Dependent on and Stabilized by Phosphatidylinositol-4-Phosphate” (PLoS ONE, 2014).
No constants are given. Whether binding was seen depends on the method and setting. Some entries that bind do so weakly or less than the wild type. Sequences can lack the tags named with a protein.

Molecular target: T1, Drs2p, tag-free after TEV cleavage (S. cerevisiae, UniProt P39524 1-1355)
T1 construct: Drs2p, yeast P4-ATPase; theoretical mass of the recombinant protein 154,050 Da; also called purified Drs2p; source: S. cerevisiae W303.1b/GAL4, co-expressed with Cdc50p, purified (streptavidin-Sepharose, TEV elution, Ni2+-TED; SEC); not shown: Bad (Biotin Acceptor Domain), N-terminal, cleaved
T1 sequence (looked up): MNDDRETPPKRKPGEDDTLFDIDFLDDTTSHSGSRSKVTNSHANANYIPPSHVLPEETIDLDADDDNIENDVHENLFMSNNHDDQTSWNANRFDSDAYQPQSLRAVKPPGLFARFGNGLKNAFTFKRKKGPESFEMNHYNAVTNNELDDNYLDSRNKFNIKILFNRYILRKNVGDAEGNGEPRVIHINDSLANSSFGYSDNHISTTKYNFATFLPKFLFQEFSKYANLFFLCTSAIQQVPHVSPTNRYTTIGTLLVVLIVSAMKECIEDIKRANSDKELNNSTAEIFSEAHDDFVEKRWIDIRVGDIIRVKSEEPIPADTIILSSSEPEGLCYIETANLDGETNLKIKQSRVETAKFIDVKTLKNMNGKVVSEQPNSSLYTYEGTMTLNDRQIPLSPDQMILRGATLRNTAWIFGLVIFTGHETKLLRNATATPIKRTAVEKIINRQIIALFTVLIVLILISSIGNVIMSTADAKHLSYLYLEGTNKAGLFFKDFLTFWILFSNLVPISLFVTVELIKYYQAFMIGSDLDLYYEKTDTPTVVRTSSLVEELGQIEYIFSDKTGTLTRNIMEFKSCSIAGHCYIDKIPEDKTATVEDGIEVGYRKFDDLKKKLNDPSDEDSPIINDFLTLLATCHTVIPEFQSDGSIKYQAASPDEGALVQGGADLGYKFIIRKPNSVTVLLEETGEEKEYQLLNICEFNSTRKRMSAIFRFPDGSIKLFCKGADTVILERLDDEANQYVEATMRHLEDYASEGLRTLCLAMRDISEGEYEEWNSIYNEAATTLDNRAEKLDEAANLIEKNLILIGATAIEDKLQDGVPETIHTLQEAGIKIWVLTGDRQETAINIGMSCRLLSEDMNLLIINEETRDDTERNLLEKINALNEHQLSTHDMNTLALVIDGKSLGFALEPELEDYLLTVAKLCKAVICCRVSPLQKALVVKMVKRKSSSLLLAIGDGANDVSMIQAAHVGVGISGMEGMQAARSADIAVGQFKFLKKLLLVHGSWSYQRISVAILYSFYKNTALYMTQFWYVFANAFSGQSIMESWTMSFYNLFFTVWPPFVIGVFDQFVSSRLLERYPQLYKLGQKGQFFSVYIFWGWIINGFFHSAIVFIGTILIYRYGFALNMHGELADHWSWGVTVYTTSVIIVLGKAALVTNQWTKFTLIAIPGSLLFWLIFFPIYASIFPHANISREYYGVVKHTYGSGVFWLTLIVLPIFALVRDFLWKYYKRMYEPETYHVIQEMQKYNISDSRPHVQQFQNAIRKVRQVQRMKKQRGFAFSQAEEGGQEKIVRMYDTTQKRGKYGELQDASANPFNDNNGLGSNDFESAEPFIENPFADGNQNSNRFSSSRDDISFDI
Assay: SEC; streptavidin-purified, Ni2+-TED-treated, concentrated complex on a TSK-3000SW column, 1 mL/min, SSR buffer without glycerol with 0.5 mg/mL DDM and 0.025 mg/mL POPS; fractions on SDS-PAGE; both purified

- binding: binds
B1: Cdc50p, tag-free after TEV cleavage (natural protein, S. cerevisiae, UniProt P25656 1-391, looked up)
chain: MVSLFKRGKAPPLTKEGPTSKKPPNTAFRQQRLKAWQPILSPQSVLPLLIFVACIFTPIGIGLIVSATKVQDLTIDYSHCDTKASTTAFEDIPKKYIKYHFKSKVENKPQWRLTENENGEQSCELQFEIPNDIKKSIFIYYKITNFYQNHRRYVQSFDTKQILGEPIKKDDLDTSCSPIRSREDKIIYPCGLIANSMFNDTFSQVLSGIDDTEDYNLTNKHISWSIDRHRFKTTKYNASDIVPPPNWMKKYPDGYTDENLPDIHTWEEFQVWMRTAAFPKFYKLTLKNESASLPKGKYQMNIELNYPISLFGGTKSFVLTTNGAIGGRNMSLGVLYLIVAGLCALFGIIFLVKLIFQPRAMGDHTYLNFDDEENEDYEDVHAENTTLREIL
modifications: glycosylated
notes: Cdc50p, accessory subunit of Drs2p; recombinant non-glycosylated mass 45,136 Da including the linker glycines; also called glycosylated Cdc50p; source: S. cerevisiae W303.1b/GAL4, co-expressed with Drs2p, purified with it (streptavidin-Sepharose, TEV elution, Ni2+-TED; SEC); not shown: His10, N-terminal, cleaved
